“And” between values parts separate entries of the source, which are not always exact repeats. Equal entries are not always repeated. Part of at least one peptide drawing is inferred or uncertain, most often the ends. Residues, ends and D or L forms follow the SMILES beside them. *: point of attachment. For = O=C*
Assays:
intact thrombospondin = test: Competitive assay, thrombospondin specific adhesion to melanoma cells; assay type: cell-based; conditions: for % of buffer control: melanoma cell adhesion to absorbed thrombospondin
Method: The direct adhesion assay of Example 5 was modified to measure the ability of the peptide compounds of the invention to compete with intact thrombospondin for adhesion to melanoma cells.
In this assay, intact thrombospondin is absorbed onto microtiter dishes as described in Example 5. The assay is similar to Example 5 except that before the melanoma cells are added to the microtiter dishes they are preincubated for 15 minutes with 100 μg/ml of various ligands.

thrombospondin (TSP) = test: Competitive platelet adhesion assay, absorbed thrombospondin; assay type: cell-based; conditions: for % Buffer Control: 250 μg/ml, absorbed protein TSP, platelets
fibronectin (FN) = test: Competitive platelet adhesion assay, absorbed fibronectin; assay type: cell-based; conditions: for % Buffer Control: 250 μg/ml, absorbed protein FN, platelets
Method: The direct adhesion assay of Example 7 was modified to measure the ability of the peptide compounds of the invention to compete with intact thrombospindin or fibronectin for adhesion of platelets.
In this assay, thrombospondin (TSP) or fibronectin (FN) was absorbed onto microtiter dish as described in Example 7. The assay was similar to Example 7 except that before platelets were added to the microtiter dishes they were preincubated with 250 μg/ml of various ligands.

[1] = test system: B16 F10 mouse melanoma cells; test: Antimetastatic activity in vivo (lung tumors); design: species or system C57 black mice
Source text: After 16 days, the mice were sacrificed and the number of lung tumors counted.

[2] = test system: Mouse B16 F10 melanoma cells; test: Direct adhesion assay (melanoma cells to adsorbed ligand); assay type: cell-based
Method: It is believed that thrombospondin acts in metastasis through its adhesive properties. […] In this assay, wells of a 96-well microtiter dish (Costar, 10 Cambridge, Massachusetts) were incubated for two to three hours with 50 μl of a 40 μg/ml solution of various ligands in 20 mM NaCl, pH 7.3. Thrombospondin (purified by the method of Tuszynski et al., J. Biol. Chem. (1985) 260:12240-5), fibronectin (Sigma Chemical Co., Missouri) served as the positive control. Bovine serum albumin (BSA) (Sigma Chemical Co.) served as the negative control. […] Following peptide adhesion to the microtiter dish, the wells were aspirated, treated with 200 μl phosphate buffered saline (PBS) containing 1% BSA for 1 hour and then washed three more times with 200 μl PBS.
Mouse B16 F10 melanoma cells were grown and harvested during log phase of growth using standard procedures. […] The total cell-associated protein was determined by dissolving the attached cells directly in the microtiter wells with 200 μl of the Pierce BCA working solution (Pierce Chem. Co. Booklet No. 23225 (1987)). […] Plates were allowed to cool to room temperature, cover sheets were removed, and the absorbance of each well was determined at 562 nm with a microtiter plate reader (Biotek, Burlington, Vt.)

Structure (SMILES): CC(C)[C@H](NC(=O)[C@H](CO)NC(=O)[C@H](CS)NC(=O)[C@@H]1CCCN1C(=O)[C@H](CO)NC(=O)[C@@H](N)Cc1cn(C=O)c2ccccc12)C(=O)N[C@H](C(=O)N[C@@H](CS)C(=O)NCC(N)=O)[C@@H](C)O [p5] (H-W(For)SPCSVTCG-NH2)
- competition with thrombospondin for adhesion of melanoma cells (in words) (intact thrombospondin): compete to a lesser degree
- % of buffer control (intact thrombospondin; 10 μg/ml): 99%
- % of buffer control (intact thrombospondin; 50 μg/ml): 104%
- % of buffer control (intact thrombospondin; 100 μg/ml): 62% and 83%
- % of buffer control (intact thrombospondin; 101 μg/ml): 108%
- % of buffer control (intact thrombospondin; 200 μg/ml): 89%
- % of buffer control (intact thrombospondin; 300 μg/ml): 83%
- % Buffer Control (thrombospondin (TSP)): 98%
- % Buffer Control (fibronectin (FN)): 109%

Structure (SMILES): CC(C)[C@H](NC(=O)[C@H](CO)NC(=O)[C@H](CS)NC(=O)[C@@H]1CCCN1C(=O)[C@H](CO)NC(=O)[C@@H](N)Cc1c[nH]c2ccccc12)C(=O)N[C@H](C(=O)N[C@@H](CS)C(=O)NCC(=O)O)[C@@H](C)O [p1] (H-WSPCSVTCG-OH)
- competition with thrombospondin for adhesion of melanoma cells (in words) (intact thrombospondin): effectively compete
- % of buffer control (intact thrombospondin; 10 μg/ml): 49%
- % of buffer control (intact thrombospondin; 50 μg/ml): 40%
- % buffer control (number of lung tumors) ([1]; 30 μg/mouse, intravenous with cells, 16 days): 49%
- number of lung tumors versus controls (in words) ([1]; mouse, in vivo): statistically fewer tumors than controls
- size of lung tumors (in words) ([1]; mouse, in vivo): smaller in size
- competition with thrombospondin for platelet adhesion (in words) (thrombospondin (TSP)): effectively competed
- % Buffer Control (thrombospondin (TSP)): 71%
- competition with fibronectin for platelet adhesion (in words) (fibronectin (FN)): did not compete
- % Buffer Control (fibronectin (FN)): 108%
- Adhesion as % Thrombospondin ([2]; absorbed compound 2 μg, B16 F10 melanoma cells): 98%
- adhesive properties (in words) ([2]; melanoma cell adhesion, Table 1): display adhesive properties
